This is one part of the list. Many values rest on one well or one pass, so single values are uncertain.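 Cells were imaged in 1,536-well plates, and nuclei stained with an antibody against cleaved PARP were counted against all DNA-stained nuclei to give the apoptosis fraction. Screening doses were chosen to leave most cells alive, and resting and induced cleaved-PARP levels differ strongly between cell lines.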

This test has as its system CBRC014 (line from a melanoma biopsy). The test can be described thus: cleaved PARP positive nuclei fraction relative to DMSO control; melanoma cells; higher = more apoptosis. As to conditions: library dose: low library concentration; 72 h.
For `NC1(c2ccc(-c3nc4ccn5c(=O)[nH]nc5c4cc3-c3ccccc3)cc2)CCC1` + Cc1cc([N+](=O)[O-])ccc1NS(=O)(=O)c1cc(Cl)ccc1Cl [FH535] (first compound 0.4 µM, partner dose 1 µM), the “cleaved PARP positive nuclei fraction” value is 156%. With `NC1(c2ccc(-c3nc4ccn5c(=O)[nH]nc5c4cc3-c3ccccc3)cc2)CCC1` + O=S(=O)(c1ccccc1)N(CC(F)(F)F)c1ccc(C(O)(C(F)(F)F)C(F)(F)F)cc1 [T0901317] (first compound 0.4 µM, partner dose 1.4 µM), the “cleaved PARP positive nuclei fraction” value stood at 98.7%.

With `CS(=O)(=O)c1ccc(C(=O)Nc2ccc(Cl)c(-c3ccccn3)c2)c(Cl)c1` [vismodegib] + Oc1cc(-c2nc(-c3ccccc3)[nH]c2-c2ccncc2)ccc1Cl [L779450] (first compound 1 µM, partner dose 0.2 µM), the “cleaved PARP positive nuclei fraction” value was found to be 96.4%. In the case of `C[C@]1(O)C[C@@H](c2nc(-c3ccc4ccc(-c5ccccc5)nc4c3)c3c(N)nccn32)C1` + CC(C)CCN1c2nc(Nc3cc(F)c(O)c(F)c3)ncc2N(C)C(=O)C1C [BID1870] (first compound 0.4 µM, partner dose 0.2 µM) it was 123%. Turning to `Cn1cnc2c(F)c(Nc3ccc(Br)cc3Cl)c(C(=O)NOCCO)cc21` [selumetinib] + CC(C)CCN1c2nc(Nc3cc(F)c(O)c(F)c3)ncc2N(C)C(=O)C1C [BID1870] (first compound 0.015 µM, partner dose 0.2 µM), the “cleaved PARP positive nuclei fraction” value worked out at 127%. As to `C[C@]1(O)C[C@@H](c2nc(-c3ccc4ccc(-c5ccccc5)nc4c3)c3c(N)nccn32)C1` + CCN(CC)CCCCNc1ncc2cc(-c3cc(OC)cc(OC)c3)c(NC(=O)NC(C)(C)C)nc2n1 [PD173074] (first compound 0.4 µM, partner dose 0.1 µM), the “cleaved PARP positive nuclei fraction” value was 91.8%. As for `CCCCCCCCc1ccc(CCC(N)(CO)CO)cc1` [fingolimod] + Cn1cc(/C=C2\C(=O)Nc3cccnc32)c2ccccc21 [GW441756] (first compound 2 µM, partner dose 0.4 µM), the “cleaved PARP positive nuclei fraction” value is 101%. With `CS(=O)(=O)c1ccc(C(=O)Nc2ccc(Cl)c(-c3ccccn3)c2)c(Cl)c1` [vismodegib] + COc1ccc(COc2ccc(Cc3cnc(N)nc3N)cc2OC)cc1 [GW2580] (first compound 1 µM, partner dose 1 µM), the “cleaved PARP positive nuclei fraction” value was 102%. On to `CC(=O)O[C@@]12CO[C@@H]1C[C@H](O)[C@@]1(C)C(=O)[C@H](O)C3=C(C)[C@@H](OC(=O)[C@H](O)[C@@H](NC(=O)OC(C)(C)C)c4ccccc4)C[C@@](O)([C@@H](OC(=O)c4ccccc4)[C@H]21)C3(C)C` [Docetaxel] + c1cc(-c2cnn3cc(-c4ccc(OCCN5CCCCC5)cc4)cnc23)ccn1 [Dorsomorphin] (first compound 0.0001 µM, partner dose 0.4 µM), for which the “cleaved PARP positive nuclei fraction” value turned out to be 210%. As for `CS(=O)(=O)c1ccc(C(=O)Nc2ccc(Cl)c(-c3ccccn3)c2)c(Cl)c1` [vismodegib] + O=C(Nc1ccccc1)c1cc([N+](=O)[O-])ccc1Cl [GW9662] (first compound 1 µM, partner dose 2 µM), the figure is 95.8%; as for `NC(=O)c1ccc(N(C(N)=O)c2c(F)cccc2F)nc1-c1ccc(F)cc1F` + COc1ccc(-c2ccc3c(N4CCOCC4)nc(N4C[C@@H](C)O[C@@H](C)C4)nc3n2)cc1CO [KU0063794] (first compound 0.4 µM, partner dose 0.02 µM), 89%; as for `CN(c1ncccc1CNc1nc(Nc2ccc3c(c2)CC(=O)N3)ncc1C(F)(F)F)S(C)(=O)=O` + Oc1nc(-c2ccc(C(F)(F)F)cc2)nc2c1CSCC2 [XAV939] (first compound 0.08 µM, partner dose 2 µM), 85.7%. In the case of `CS(=O)(=O)c1ccc(C(=O)Nc2ccc(Cl)c(-c3ccccn3)c2)c(Cl)c1` [vismodegib] + COC(=O)c1sccc1S(=O)(=O)Nc1ccc(Nc2ccccc2)cc1OC [GSK0660] (first compound 1 µM, partner dose 1 µM) it was 107%; in that of `Cn1sc(=O)n(Cc2ccccc2)c1=O` + O=C(O)C(=O)Nc1sc2c(c1C(=O)O)CCNC2 [TCS401] (first compound 0.4 µM, partner dose 1.66667 µM), 114%; in that of `Cn1cnc2c(F)c(Nc3ccc(Br)cc3Cl)c(C(=O)NOCCO)cc21` [selumetinib] + N#Cc1c(O)c2c(-c3ccc(-c4ccccc4O)cc3)csc2[nH]c1=O [A769662] (first compound 0.015 µM, partner dose 2 µM), 79%.

`CCN(CC)CCNC(=O)c1c(C)[nH]c(/C=C2\C(=O)Nc3ccc(F)cc32)c1C` [sunitinib] + N#Cc1c(O)c2c(-c3ccc(-c4ccccc4O)cc3)csc2[nH]c1=O [A769662] (first compound 0.4 µM, partner dose 2 µM): the “cleaved PARP positive nuclei fraction” value turned out to be 91.4%. As for `CS(=O)(=O)c1ccc(C(=O)Nc2ccc(Cl)c(-c3ccccn3)c2)c(Cl)c1` [vismodegib] + Cn1cc(/C=C2\C(=O)Nc3cccnc32)c2ccccc21 [GW441756] (first compound 1 µM, partner dose 0.4 µM), the figure is 81.3%; as for `COc1ccc(C2=N[C@@H](c3ccc(Cl)cc3)[C@@H](c3ccc(Cl)cc3)N2C(=O)N2CCNC(=O)C2)c(OC(C)C)c1` [Nutlin-3] + Cn1cc(/C=C2\C(=O)Nc3cccnc32)c2ccccc21 [GW441756] (first compound 0.1 µM, partner dose 0.4 µM), 87.1%. In the case of `COc1ccc(C2=N[C@@H](c3ccc(Cl)cc3)[C@@H](c3ccc(Cl)cc3)N2C(=O)N2CCNC(=O)C2)c(OC(C)C)c1` [Nutlin-3] + COc1ccc(COc2ccc(Cc3cnc(N)nc3N)cc2OC)cc1 [GW2580] (first compound 0.1 µM, partner dose 1 µM), the “cleaved PARP positive nuclei fraction” value was 94.6%.

As to `C[C@@H](N)c1ccc(C(=O)Nc2ccnc3[nH]ccc23)cc1` + O=C1NC(=O)/C(=C/c2ccc(-c3ccc(F)cc3O)o2)S1 [AS252424] (first compound 0.4 µM, partner dose 1 µM), the “cleaved PARP positive nuclei fraction” value was found to be 55.3%.

`C[C@]1(O)C[C@@H](c2nc(-c3ccc4ccc(-c5ccccc5)nc4c3)c3c(N)nccn32)C1` + Oc1cc(-c2nc(-c3ccccc3)[nH]c2-c2ccncc2)ccc1Cl [L779450] (first compound 0.4 µM, partner dose 0.2 µM): the “cleaved PARP positive nuclei fraction” value came to 222%. As for `CCCCCCCCc1ccc(CCC(N)(CO)CO)cc1` [fingolimod] + COC(=O)c1sccc1S(=O)(=O)Nc1ccc(Nc2ccccc2)cc1OC [GSK0660] (first compound 2 µM, partner dose 1 µM), the figure is 66.7%.

Regarding `CCN(CC)CCNC(=O)c1c(C)[nH]c(/C=C2\C(=O)Nc3ccc(F)cc32)c1C` [sunitinib] + O=C1NC(=O)/C(=C/c2ccc(-c3ccc(F)cc3O)o2)S1 [AS252424] (first compound 0.4 µM, partner dose 1 µM), the “cleaved PARP positive nuclei fraction” value came to 89.8%. Turning to `NC1(c2ccc(-c3nc4ccn5c(=O)[nH]nc5c4cc3-c3ccccc3)cc2)CCC1` + CC(C)CCN1c2nc(Nc3cc(F)c(O)c(F)c3)ncc2N(C)C(=O)C1C [BID1870] (first compound 0.4 µM, partner dose 0.2 µM), the “cleaved PARP positive nuclei fraction” value came out at 99.7%. Regarding `CC(=O)O[C@@]12CO[C@@H]1C[C@H](O)[C@@]1(C)C(=O)[C@H](O)C3=C(C)[C@@H](OC(=O)[C@H](O)[C@@H](NC(=O)OC(C)(C)C)c4ccccc4)C[C@@](O)([C@@H](OC(=O)c4ccccc4)[C@H]21)C3(C)C` [Docetaxel] + CCCCCCCCCCCC1=C(O)C(=O)C=C(O)C1=O [Embelin] (first compound 0.0001 µM, partner dose 1.2 µM), the “cleaved PARP positive nuclei fraction” value worked out at 168%.

In the case of `Cn1cnc2c(F)c(Nc3ccc(Br)cc3Cl)c(C(=O)NOCCO)cc21` [selumetinib] + COc1ccc(COc2ccc(Cc3cnc(N)nc3N)cc2OC)cc1 [GW2580] (first compound 0.015 µM, partner dose 1 µM), the “cleaved PARP positive nuclei fraction” value was 79.5%. Take `C[C@]1(O)C[C@@H](c2nc(-c3ccc4ccc(-c5ccccc5)nc4c3)c3c(N)nccn32)C1` + O=C(O)C(=O)Nc1sc2c(c1C(=O)O)CCNC2 [TCS401] (first compound 0.4 µM, partner dose 1.66667 µM): the “cleaved PARP positive nuclei fraction” value is 112%. For the compound `CCN(CC)CCNC(=O)c1c(C)[nH]c(/C=C2\C(=O)Nc3ccc(F)cc32)c1C` [sunitinib] + c1cc(-c2cnn3cc(-c4ccc(OCCN5CCCCC5)cc4)cnc23)ccn1 [Dorsomorphin] (first compound 0.4 µM, partner dose 0.4 µM), the “cleaved PARP positive nuclei fraction” value was found to be 78.6%. As for `CC1(C)CCC(c2ccc(Cl)cc2)=C(CN2CCN(c3ccc(C(=O)NS(=O)(=O)c4ccc(N[C@H](CCN5CCOCC5)CSc5ccccc5)c(S(=O)(=O)C(F)(F)F)c4)cc3)CC2)C1` + COc1cc(N2CCC(N3CCN(C)CC3)CC2)ccc1Nc1ncc(Cl)c(Nc2ccccc2S(=O)(=O)C(C)C)n1 [NVP-TAE684] (first compound 0.4 µM, partner dose 0.08 µM), the figure is 803%; as for `Cn1sc(=O)n(Cc2ccccc2)c1=O` + CCN(CC)CCCCNc1ncc2cc(-c3cc(OC)cc(OC)c3)c(NC(=O)NC(C)(C)C)nc2n1 [PD173074] (first compound 0.4 µM, partner dose 0.1 µM), 184%; as for `CCN(CC)CCNC(=O)c1c(C)[nH]c(/C=C2\C(=O)Nc3ccc(F)cc32)c1C` [sunitinib] + CCCCCCCCCCCC1=C(O)C(=O)C=C(O)C1=O [Embelin] (first compound 0.4 µM, partner dose 1.2 µM), 82%.

These data come from the supplement of paper PMC4604168 (melanoma cell lines).
